Measured values: article PMC10443802 (JCI Insight, 2023)
Where “and” joins values, the source holds several entries; their conditions need not be identical. Equal entries are not always repeated. Where a SMILES comes first, the peptide text is derived from it.

Tested on: OATP1B2
Test: Untargeted metabolomics of plasma and DRG, WT vs OATP1B2-deficient mice
Assay type: in vivo, mouse
[1] = untargeted metabolomics, WT vs OATP1B2-deficient mice, supplement sheet "Figure 5B" (volcano plot)
[2] = Figure 5B source data (volcano plot), untargeted metabolomics, WT vs OATP1B2-deficient mice, log2 fold change of metabolite level
[3] = untargeted metabolomics, sheet "Figure 5C", WT vs OATP1B2-deficient mice
[4] = untargeted metabolomics, WT vs OATP1B2-deficient mice, supplement sheet "Figure 5B"

Structure (SMILES)	Log2FoldChange [1]	Log2FoldChange [3]	other results
C[N+]1(C)CCC[C@H]1C(=O)[O-] [stachydrine]			Log2FoldChange (mouse, in vivo): 0.3674 and 0.546
CCCCCCCCCCCCCCCCCC(N)=O [stearamide (18:0)]	0.5753		
CCCCCCCCCCCCCCCCCC(=O)O [stearate (18:0)]		0	Log2FoldChange [2]: -0.2009
CC/C=C\C/C=C\C/C=C\C/C=C\CCCCC(=O)O [stearidonate (18:4n3)]		0.02857	Log2FoldChange [2]: -0.3219
CCCCCCCCCCCCC/C=C/[C@@H](O)[C@H](COP(=O)([O-])OCC[N+](C)(C)C)NC(=O)CCCCCCCCCCCCCCCCC [stearoyl sphingomyelin (d18:1/18:0)]		-0.2863	
CCCCCCCCCCCCCCCCCC(=O)O[C@H](CC(=O)[O-])C[N+](C)(C)C [stearoylcarnitine (C18)]		0.08406	
CCCCCCCCCCCCCCCCCC(=O)OCC[N+](C)(C)C [stearoylcholine*]			Log2FoldChange [4]: -0.152
O=C(O)CCCCCCC(=O)O [suberate (C8-DC)]			Log2FoldChange [4]: -0.0145
C[N+](C)(C)C[C@@H](CC(=O)[O-])OC(=O)CCC(=O)O [succinylcarnitine (C4-DC)]	0.6508	-0.3219	
O=S(=O)(O)O [sulfate*]			Log2FoldChange [4]: 0.05658
O=C(O)C(O)C(=O)O [tartronate (hydroxymalonate)]		0.02857	
NCCS(=O)(=O)O [taurine]			Log2FoldChange [4]: 0.05658
C[C@H](CCC(=O)NCCS(=O)(=O)O)[C@H]1CC[C@H]2[C@@H]3CC[C@@H]4C[C@H](O)CC[C@]4(C)[C@H]3C[C@H](O)[C@]12C [taurodeoxycholate]	1.7866		
CC(CCC(=O)NCCS(=O)(=O)O)C1CCC2C3CCC4CC(OS(=O)(=O)O)CCC4(C)C3CC(O)C12C (stereo not drawn) [taurodeoxycholic acid 3-sulfate]	0.6599		
C[C@H](CCC(=O)NCCS(=O)(=O)O)[C@H]1CC[C@H]2[C@@H]3C[C@H](O)[C@@H]4C[C@H](O)CC[C@]4(C)[C@H]3CC[C@]12C [taurohyodeoxycholic acid]	1.281		
C[C@H](CCC(=O)NCCS(=O)(=O)O)[C@H]1CC[C@H]2[C@@H]3CC[C@@H]4C[C@H](OS(=O)(=O)O)CC[C@]4(C)[C@H]3CC[C@]12C [taurolithocholate 3-sulfate]	1.17		
O=C(O)CCCCCCCCCCCCC(=O)O [tetradecanedioate (C14-DC)]	2.094		
Cc1ncc(C[n+]2csc(CCO)c2C)c(N)n1 [thiamin (Vitamin B1)]	0.3896		
Cc1ncc(C[n+]2csc(CCOP(=O)(O)O)c2C)c(N)n1 [thiamin monophosphate]		0.2265	
Cc1c[nH]c(=O)[nH]c1=O [thymine]	0.3674	0.5945	
NC(Cc1cc(I)c(Oc2cc(I)c(O)c(I)c2)c(I)c1)C(=O)O (stereo not drawn) [thyroxine]			Log2FoldChange [2]: -0.2515
C/C=C(\C)C(=O)NCC(=O)O [tigloylglycine]	0.4647		
CCC/C=C/C(=O)NCC(=O)O [trans-2-hexenoylglycine]	0.2265		

Structure (SMILES)	Log2FoldChange [1]	Log2FoldChange [3]	other results
CCCC[C@@H]1C[C@H]1CC(=O)NCC(=O)O [trans-3,4-methyleneheptanoylglycine]	0.263		
O=C(O)[C@@H]1C[C@@H](O)CN1 [trans-4-hydroxyproline]		-0.1361	Log2FoldChange [4]: -0.1203
O=C(O)/C=C/c1cnc[nH]1 [trans-urocanate]	0.433	-0.1844	
C[N+](C)(C)[O-] [trimethylamine N-oxide]	0.3785		
CC(=O)O.NC(CO)(CO)CO [trizma acetate]		1.546	
N[C@@H](Cc1ccc(O)cc1)C(=O)O [tyrosine]		0.2265	
O=C(O)CCCCCCCCCC(=O)O [undecanedioate (C11-DC)]	1.585		
Oc1nc(O)c2nc(O)[nH]c2n1 [urate]	0.2265	0.2869	
NC(N)=O [urea]		0.111	Log2FoldChange [4]: 0.1375
C[C@H](CCC(=O)O)[C@H]1CC[C@H]2[C@@H]3[C@@H](O)C[C@@H]4C[C@H](O)CC[C@]4(C)[C@H]3C[C@H](O)[C@]12C [ursocholate]	5.0781		
C[C@H](CCC(=O)O)[C@H]1CC[C@H]2[C@@H]3[C@@H](O)C[C@@H]4C[C@H](O)CC[C@]4(C)[C@H]3CC[C@]12C [ursodeoxycholate]	2.025		
CCCCC(=O)O [valerate (5:0)]	0.3219	0.05658	
CCCCC(=O)O[C@H](CC(=O)[O-])C[N+](C)(C)C [valerylcarnitine (C5)]	0.4854		
CCCCC(=O)NCC(=O)O [valerylglycine]	0.6135		
CC(C)[C@H](N)C(=O)N[C@@H](CCC(N)=O)C(=O)O [valylglutamine] (H-Val-Gln-OH)		0.189	
CC(C)[C@H](N)C(=O)NCC(=O)O [valylglycine] (H-Val-Gly-OH)		0.263	
CC(C)C[C@H](NC(=O)[C@@H](N)C(C)C)C(=O)O [valylleucine] (H-Val-Leu-OH)		0.251	
COc1cc(CC(O)C(=O)O)ccc1O (stereo not drawn) [vanillactate]			Log2FoldChange [4]: 0.1763
O=c1[nH]c(=O)c2nc[nH]c2[nH]1 [xanthine]		0.2265	Log2FoldChange [4]: 0.189
OC[C@H]1O[C@@H](n2cnc3c(O)nc(O)nc32)[C@H](O)[C@@H]1O [xanthosine]	0.4957	0.4222	
O=C(O)c1cc(O)c2cccc(O)c2n1 [xanthurenate]	0.275		
Cc1c(C)c2c(c(C)c1O)CC[C@@](C)(CCC[C@H](C)CCC[C@H](C)CCCC(C)C)O2 [α-tocopherol]	1.021	-0.454	
